Assay results taken from paper PMC3207863.
No constants are given. Whether binding was seen depends on the method and setting. Binding seen in cells or lysates may run through a third protein. Binding calls can cover weak binding; strength is not graded here.

What was measured:
[1] = molecular target: T1, LIS1 (PAFAH1b1, platelet-activating factor acetylhydrolase isoform 1b subunit 1), endogenous (mouse (endogenous in osteoclasts from C57/BL6 bone marrow macrophages)) (UniProt P63005); experiment: co-IP; lysate of mature osteoclasts transduced with truncated HA-Plekhm1 fragments, H-buffer; endogenous LIS1 precipitated with a rabbit polyclonal antibody, Plekhm1 detected with monoclonal anti-HA
T1 sequence: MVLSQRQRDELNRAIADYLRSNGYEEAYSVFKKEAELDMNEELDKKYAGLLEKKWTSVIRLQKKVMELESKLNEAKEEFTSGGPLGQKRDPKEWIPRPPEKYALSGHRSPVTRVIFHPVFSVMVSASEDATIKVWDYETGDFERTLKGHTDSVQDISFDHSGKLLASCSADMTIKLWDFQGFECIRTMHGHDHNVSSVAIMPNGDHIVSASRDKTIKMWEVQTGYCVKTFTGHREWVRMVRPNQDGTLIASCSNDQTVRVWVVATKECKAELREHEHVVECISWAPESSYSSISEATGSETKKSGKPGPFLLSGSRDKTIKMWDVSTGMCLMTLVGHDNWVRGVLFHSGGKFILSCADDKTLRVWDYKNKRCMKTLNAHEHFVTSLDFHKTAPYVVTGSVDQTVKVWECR

[2] = molecular target: GST fusion protein of the PH1 domain of mouse Plekhm1 (mouse); experiment: pull-down; 2 µg GST fusion protein of single Plekhm1 domains on glutathione beads, 2 mg mature osteoclast lysate, 2 hours at 4°C, IP buffer (20 mM Hepes pH 7.4, 120 mM NaCl, 5% glycerol, 0.5 mM EDTA, 0.2% NP-40); immunoblot with anti-LIS1; only the target purified
[3] = molecular target: HA-tagged N-terminal half of mouse Plekhm1 (mouse); experiment: co-IP; lysate of mature osteoclasts transduced with HA-Plekhm1 constructs, H-buffer (20 mM HEPES pH 7.4, 1% Triton X-100, 1 mM EDTA, 150 mM NaCl, 1 mM DTT); IP with anti-HA, blots with anti-LIS1, anti-DIC and anti-HA
[4] = molecular target: HA-tagged C-terminal half of mouse Plekhm1 (mouse); experiment: as above

HA-tagged C-terminal half of mouse Plekhm1 depleted in PH1 domain (domain or fragment)
binding [1]: no binding

HA-tagged C-terminal half of mouse Plekhm1 (domain or fragment)
binding [1]: binds

HA-tagged N-terminal half of mouse Plekhm1 without RUN domain (domain or fragment)
binding [1]: no binding

B1: LIS1 (PAFAH1b1, platelet-activating factor acetylhydrolase isoform 1b subunit 1), endogenous (protein, UniProt P63005 1-410)
chain: MVLSQRQRDELNRAIADYLRSNGYEEAYSVFKKEAELDMNEELDKKYAGLLEKKWTSVIRLQKKVMELESKLNEAKEEFTSGGPLGQKRDPKEWIPRPPEKYALSGHRSPVTRVIFHPVFSVMVSASEDATIKVWDYETGDFERTLKGHTDSVQDISFDHSGKLLASCSADMTIKLWDFQGFECIRTMHGHDHNVSSVAIMPNGDHIVSASRDKTIKMWEVQTGYCVKTFTGHREWVRMVRPNQDGTLIASCSNDQTVRVWVVATKECKAELREHEHVVECISWAPESSYSSISEATGSETKKSGKPGPFLLSGSRDKTIKMWDVSTGMCLMTLVGHDNWVRGVLFHSGGKFILSCADDKTLRVWDYKNKRCMKTLNAHEHFVTSLDFHKTAPYVVTGSVDQTVKVWECR
binding [2]: binds
binding [3]: binds
binding [4]: binds
